Laboratory results taken from publication PMC11519602.
Results are given in words; binding and its absence hold for the method and conditions named. In cells and extracts the contact can be indirect. Some binding calls cover weakened binding; strength is not graded here. For some assays here: Where a sequence is shown, tags or fusion partners need not be part of it.

Amino acid sequences for entries named in this document (tags omitted).
UniProt Q96NE9: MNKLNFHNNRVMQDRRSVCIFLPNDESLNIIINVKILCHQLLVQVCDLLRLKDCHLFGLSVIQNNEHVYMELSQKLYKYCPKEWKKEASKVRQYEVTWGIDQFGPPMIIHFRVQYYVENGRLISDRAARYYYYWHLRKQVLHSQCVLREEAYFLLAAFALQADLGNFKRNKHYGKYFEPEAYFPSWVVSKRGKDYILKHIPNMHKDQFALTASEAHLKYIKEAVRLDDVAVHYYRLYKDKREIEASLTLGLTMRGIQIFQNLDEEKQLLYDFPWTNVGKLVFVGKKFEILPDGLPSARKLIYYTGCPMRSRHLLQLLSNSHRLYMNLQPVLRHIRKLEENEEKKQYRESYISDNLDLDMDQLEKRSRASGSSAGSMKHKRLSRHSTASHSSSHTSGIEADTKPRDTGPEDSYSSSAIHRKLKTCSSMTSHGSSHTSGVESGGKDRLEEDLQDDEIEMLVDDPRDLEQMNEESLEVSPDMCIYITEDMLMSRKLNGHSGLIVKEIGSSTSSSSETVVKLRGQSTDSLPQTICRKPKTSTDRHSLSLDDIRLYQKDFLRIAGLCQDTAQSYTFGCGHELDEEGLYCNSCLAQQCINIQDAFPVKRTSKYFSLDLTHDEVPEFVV
UniProt P35240: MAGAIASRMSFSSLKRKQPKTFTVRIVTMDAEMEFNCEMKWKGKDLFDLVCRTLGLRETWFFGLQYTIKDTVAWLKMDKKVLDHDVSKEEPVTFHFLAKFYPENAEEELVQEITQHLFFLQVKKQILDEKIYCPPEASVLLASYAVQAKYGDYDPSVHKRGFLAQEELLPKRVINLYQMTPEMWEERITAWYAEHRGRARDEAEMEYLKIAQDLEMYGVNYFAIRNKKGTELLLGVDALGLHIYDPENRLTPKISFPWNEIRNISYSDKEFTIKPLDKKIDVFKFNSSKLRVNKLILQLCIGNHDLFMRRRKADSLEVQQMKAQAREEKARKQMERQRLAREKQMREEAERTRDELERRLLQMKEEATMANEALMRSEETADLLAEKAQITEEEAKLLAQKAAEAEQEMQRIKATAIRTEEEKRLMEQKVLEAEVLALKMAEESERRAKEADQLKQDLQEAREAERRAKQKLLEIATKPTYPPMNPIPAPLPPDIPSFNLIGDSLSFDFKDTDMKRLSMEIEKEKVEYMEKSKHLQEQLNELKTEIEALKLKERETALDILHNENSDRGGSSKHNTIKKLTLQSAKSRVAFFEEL

Assays:
[1] = molecular target: HA-tagged FRMD6 (FERM domain-containing protein 6) (UniProt Q96NE9); assay: co-IP; IMR90 cells transfected with HA-FRMD6 alone, with or without DOX for 48 h; RIPA lysates immunoprecipitated with anti-HA beads, immunoblotting for endogenous proteins
FLAG-tagged MST1 = molecular target: T1, FLAG-tagged MST1 (UniProt Q13043); assay: co-IP; IMR90 cells co-transfected with HA-FRMD6 and FLAG-MST1; RIPA lysates immunoprecipitated with anti-HA or anti-FLAG antibody-coated agarose beads, immunoblotting
T1 sequence: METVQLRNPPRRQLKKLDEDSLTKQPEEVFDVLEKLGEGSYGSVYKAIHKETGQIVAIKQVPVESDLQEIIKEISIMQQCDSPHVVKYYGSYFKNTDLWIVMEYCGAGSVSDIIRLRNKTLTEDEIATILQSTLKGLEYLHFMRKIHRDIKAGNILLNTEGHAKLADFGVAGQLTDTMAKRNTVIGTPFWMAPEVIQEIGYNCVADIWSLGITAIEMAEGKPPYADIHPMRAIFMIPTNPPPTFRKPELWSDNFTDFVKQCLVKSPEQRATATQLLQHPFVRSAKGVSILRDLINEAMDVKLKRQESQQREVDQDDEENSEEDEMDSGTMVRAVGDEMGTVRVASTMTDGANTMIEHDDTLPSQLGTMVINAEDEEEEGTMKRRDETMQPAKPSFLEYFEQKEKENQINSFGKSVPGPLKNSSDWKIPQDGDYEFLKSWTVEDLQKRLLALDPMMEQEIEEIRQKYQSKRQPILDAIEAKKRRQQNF

Substance: NF2 (Merlin, neurofibromin 2) (from UniProt P35240 1-595)
- binding [1]: no binding

Substance: HA-tagged FRMD6 (FERM domain-containing protein 6) (from UniProt Q96NE9 1-622)
- binding (FLAG-tagged MST1): binds
